## Screening data, single-dose tests

The chains behind the UniProt entries cited, without tags or fusion partners. Residues count along the entry.
UniProt Q8IDJ8, 1-583: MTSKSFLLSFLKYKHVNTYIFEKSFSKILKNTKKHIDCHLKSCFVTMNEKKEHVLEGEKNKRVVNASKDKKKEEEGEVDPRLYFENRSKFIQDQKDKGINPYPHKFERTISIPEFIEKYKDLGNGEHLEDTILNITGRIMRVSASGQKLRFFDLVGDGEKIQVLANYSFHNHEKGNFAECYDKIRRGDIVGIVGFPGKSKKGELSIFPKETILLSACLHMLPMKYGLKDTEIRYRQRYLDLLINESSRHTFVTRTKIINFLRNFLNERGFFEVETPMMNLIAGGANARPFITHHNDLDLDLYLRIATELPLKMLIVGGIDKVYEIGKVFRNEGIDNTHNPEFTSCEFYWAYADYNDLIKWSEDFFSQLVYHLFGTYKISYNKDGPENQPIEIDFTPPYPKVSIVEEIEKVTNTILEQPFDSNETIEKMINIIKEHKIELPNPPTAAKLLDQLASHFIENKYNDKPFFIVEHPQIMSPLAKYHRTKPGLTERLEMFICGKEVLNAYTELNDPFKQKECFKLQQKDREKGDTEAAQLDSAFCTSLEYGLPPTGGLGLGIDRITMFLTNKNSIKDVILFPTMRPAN
UniProt P9WFT3, whole entry: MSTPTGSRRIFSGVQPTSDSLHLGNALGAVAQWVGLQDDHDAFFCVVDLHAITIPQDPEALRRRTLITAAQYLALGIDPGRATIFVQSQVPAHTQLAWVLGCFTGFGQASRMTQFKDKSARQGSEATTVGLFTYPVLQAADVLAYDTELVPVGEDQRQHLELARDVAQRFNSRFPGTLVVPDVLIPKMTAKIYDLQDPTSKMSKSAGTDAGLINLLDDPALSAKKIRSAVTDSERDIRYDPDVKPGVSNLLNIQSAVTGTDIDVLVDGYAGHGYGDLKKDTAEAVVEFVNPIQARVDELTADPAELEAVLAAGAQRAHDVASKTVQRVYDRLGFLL

A: 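Enzyme assay of the cytosolic lysyl-tRNA synthetase in 384-well plates, read by luminescence. Target: Lysine-tRNA ligase, Plasmodium falciparum 3D7 (UniProt Q8IDJ8). Concentration: 30 µM. Direction is inferred from only a few compounds that gave an IC50; most scored high, so higher reads as stronger inhibition. About 69,000 compounds were tested under these conditions; 0.071% (about 49) showed 50% or more at least once.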
B: 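Enzyme assay of tryptophanyl-tRNA synthetase; the read-out is not stated. Target: Tryptophan-tRNA ligase, Mycobacterium tuberculosis (UniProt P9WFT3). Tested at 10 µM. Direction is not recorded; retested compounds ran higher, which suggests that high means inhibition. Size under these conditions: about 65,000 compounds, about 64 of them at 50% or above in at least one test.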
C: 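Cell assay of Leishmania donovani living inside macrophages; the read-out is not stated. Tested at 30 µM. Higher reads as stronger inhibition (inferred: compounds with an IC50 in retests scored well above the rest). About 69,000 compounds were tested under these conditions; 1.5% (about 1,000) showed 50% or more at least once.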

The filed quantity is “Percent Effect” (%).
How 0% and 100% were set is not recorded. Most values in the screen are low, and negative values occur.
The compounds are a random part of those screened.

- Cc1ccc2c(c1)CN(C(=O)c1cccs1)C(CN(C)C)CO2 (centres undefined) : A: 4.964%; C: -13.41%
- CCN1CCNC(=O)C12CCN(C(=O)c1ccccn1)CC2 : A: 1.715%; C: 32.98%
- [H][C@]12CC[C@@]3(N=C(CC)NC3=O)[C@@]1([H])CN(C(=O)NCC1CCCCC1)C2 : C: 3.586%
- CCOC(C)C(=O)N1CCCN(Cc2csc(CC)n2)CC1 (centres undefined) : A: -0.9139%; B: 7.917%; C: 7.303%
- COCC1CN(C(=O)Cc2ccc(F)cc2)Cc2ccnn2C1 (centres undefined) : A: 1.742%; B: -0.08231%; C: 26.85%
- [H][C@@]12C[C@H](C(=O)NCc3cccnc3)[C@@]([H])(CN(Cc3ccc(C)cc3)C1)O2 : C: 1.18%
- [H][C@@]12CN(Cc3ccoc3)C[C@]1([H])OCCN2CC(=O)N(C)C : C: 22.92%
- Cn1cc(C(=O)N2CCN(c3ncccn3)CC2)ccc1=O : A: 0.7694%; B: -2.941%; C: 19.81%
- CCc1nnc(CN2CCCC(c3cc(C(F)(F)F)[nH]n3)C2)o1 (centres undefined) : A: 0.9451%; B: 1.774%; C: 0.05867%
- O=C(CCNC(=O)C1CCCC1)NCc1ccccc1Cn1ccnc1 : A: 0.1588%; B: -5.952%; C: 29.7%
- Cc1cc(C)c2cc(C(=O)N3CCNC(=O)C3)[nH]c2c1 : A: 2.661%; B: 0.784%; C: -2.403%
- CCOC1CCN(C(=O)c2ccc(-n3ncc(C#N)c3N)cc2)CC1 : A: 6.303%; B: -3.612%; C: 27.59%
- CCCNC(=O)N1CCc2ccc(S(=O)(=O)N3CCN(C)CC3)cc2C1 : A: -0.4798%; B: 0.3303%; C: 29.14%
- CN1C(=O)CC(c2cnn(C)c2)C12CCN(CC1CCOCC1)CC2 (centres undefined) : A: 1.058%; B: -7.413%
- O=C(c1cnccn1)N1CCC2(CCCN(Cc3ccoc3)C2)C1 (centres undefined) : A: -5.386%; B: 3.466%; C: -2.284%
- COc1ccc(C2CCCN2Cc2nnnn2C2CC2)cc1OC (centres undefined) : A: 8.026%; B: 0.7638%; C: 9.318%
- CC(C)N(C)C(=O)c1ccc(CNc2ncc(C#N)cc2Cl)cc1 : A: -2.051%; B: 7.354%; C: -8.476%
- CC(C)N(Cc1ccccn1)C(=O)CCC(=O)c1ccc(F)cc1F : A: 1.141%; B: -3.783%; C: -2.081%
- CCN(CC)c1ccc(C(=O)N2CCCC2Cn2cc(C)cn2)cn1 (centres undefined) : A: 3.179%; B: -4.412%; C: 14.99%
- CCc1n[nH]c(C2CN(Cc3csc(C4CCCC4)n3)CCO2)n1 (centres undefined) : A: 1.342%; B: 2.341%; C: 2.055%
- [H][C@]12CC[C@]([H])(CN(Cc3ccncc3)C1)N(Cc1cccc(O)c1)C2 : C: -9.214%
- CCc1nnc2n1CCN(C(=O)CCc1ccc3c(c1)OCO3)C2 : A: 7.032%; B: 1.711%; C: 42.56%
- Cc1nnc(C(C)Nc2ccc(OCCc3ccccc3)nc2)o1 (centres undefined) : A: -1.162%; B: -1.854%; C: -72.56%
- Cc1ccc(C(=O)NCCN2CCOCC2)cc1N(C)S(C)(=O)=O : A: -1.457%; B: -0.2463%; C: 18.21%

2 of the entries, repeated:

{"structure": "Cc1ccc(C(=O)NCCN2CCOCC2)cc1N(C)S(C)(=O)=O", "A": -1.457, "B": -0.2463, "C": 18.21}
{"structure": "CCc1n[nH]c(C2CN(Cc3csc(C4CCCC4)n3)CCO2)n1", "stereo": "centres undefined", "A": 1.342, "B": 2.341, "C": 2.055}

From ChEMBL document CHEMBL3988442, “University of Dundee, Small-Polar-MMV Screening Library” (2021).